Experimental data: US12600757B2, “Peptides inhibiting gamma-c-cytokine activity and methods of use” (Bioniz, LLC, priority 2017, dated 2026)
Part of at least one peptide drawing is inferred or uncertain, most often the ends. Ends that are not written are not given here.

Legend:
IL-4 = assay: PT-18β cell proliferation assay (WST-1), IL-4 stimulated; format: cell-based, murine; conditions: PT-18β cells, 1:20 or 1:50 dilution of HEK293T supernatant, 1 nM cytokine, 2 days
IL-15 = assay: PT-18β cell proliferation assay (WST-1), IL-15 stimulated; format: cell-based, murine; conditions: PT-18β cells, 1:20 or 1:50 dilution of HEK293T supernatant, 1 nM cytokine, 2 days
[1] = test system: T-cells in HAM/TSP culture; assay: Ex vivo spontaneous T-cell proliferation assay using HAM/TSP patient PBMC; format: cell-based, human
Description: Proliferation assays were performed on HAM/TSP patient blood samples with and without the addition of BNZ-γ. These assays evaluated the ability of BNZ-γ to block the function of cytokines, such as IL-2 and IL-15, present in the ex vivo HAM/TSP patient blood culture and prevent spontaneous T-cell proliferation in these samples.
In an ex vivo spontaneous T-cell proliferation assay, PBMC from HAM/TSP patient was cultured at 1×10(6) cells per well of a 96 well plate in RPMI-10% FCS. Increasing concentrations of BNZ-γ peptide were added to each well. As a control, an irrelevant peptide was used in similar fashion. The cells were incubated in a 37° C. CO2 incubator for 3, 4, and 6 days. The amount of 1 uCi of ^3H-thymidine was added to the cells. After an additional 6 hour incubation, cells were harvested their proliferation rate was measured. As indicated in FIG. 5A-FIG. 5D, BNZ-γ peptide inhibits the spontaneous proliferation of T-cells in HAM/TSP culture at a concentration of about 1 ug/ml.
Other immunological markers were additionally measured in this assay. The percentage of the viral specific CD8 cells was measured during the ex vivo culture using viral protein tetramers. The population of CD4+CD25+ cells, a marker of T-cell activation, as well as Ki67 staining, a marker of T-cell proliferation, was monitored in a flow cytometry assay.

[2] = test system: IL-15 mediated phosphorylation of STAT5; assay: IL-15 induced tyrosine phosphorylation of STAT5 in PT-18β cells (immunoblot); format: cell-based, murine; conditions: anti-phospho-STAT5 immunoblot
IL-9 = assay: PT-18β cell proliferation assay (WST-1), IL-9 stimulated; format: cell-based, murine; conditions: PT-18β cells, 1:20 or 1:50 dilution of HEK293T supernatant, 1 nM cytokine, 2 days
IL-3 = assay: PT-18β cell proliferation assay (WST-1), IL-3 stimulated (non-γc negative control cytokine); format: cell-based, murine; conditions: PT-18β cells, 1:20 or 1:50 dilution of HEK293T supernatant, 1 nM cytokine, 2 days
[3] = HAM/TSP peripheral blood ex vivo culture, flow cytometry

In the case of “IKEFLQRFIHIVQSIINTS [BNZ-γ, I-K-E-F-L-Q-R-F-I-H-I-V-Q-S-I-I-N-T-S]”, the “cellular proliferation stimulated by IL-4” value (IL-4) was “not affected”, the “growth-promoting activity of IL-15” value (IL-15) was “significantly (p<0.01 Student's T test) reduced” and the “concentration at which the peptide inhibits the spontaneous proliferation of T-cells in HAM/TSP culture” value ([1]; HAM/TSP patient PBMC, 3, 4 and 6 days, 3H-thymidine) was “about 1 ug/ml”. For the same sequence, the “population of CD4+CD25+ cells (marker of T-cell activation)” value [1, 3] was “diminished”, the “population of CD4+Ki67 cells (marker of T-cell proliferation)” value [1, 3] was “reduced” and the “tyrosine phosphorylation of STAT5 induced by IL-15” value [2] was “markedly reduced”. The “growth-promoting activity of IL-9” value (IL-9) was “significantly (p<0.01 Student's T test) reduced” and the “growth-promoting activity of IL-3 (a non γc-cytokine)” value (IL-3) was “not inhibited”.
